The values that follow are results of earlier work, collected in patent US20230073449A1, “STROMA-FREE T CELL DIFFERENTIATION FROM HUMAN PLURIPOTENT STEM CELLS” (THE CHILDREN'S MEDICAL CENTER CORPORATION, priority 2020, published 2023).

Amino acid sequences for entries named in this document (tags omitted).
UniProt Q15910, whole entry: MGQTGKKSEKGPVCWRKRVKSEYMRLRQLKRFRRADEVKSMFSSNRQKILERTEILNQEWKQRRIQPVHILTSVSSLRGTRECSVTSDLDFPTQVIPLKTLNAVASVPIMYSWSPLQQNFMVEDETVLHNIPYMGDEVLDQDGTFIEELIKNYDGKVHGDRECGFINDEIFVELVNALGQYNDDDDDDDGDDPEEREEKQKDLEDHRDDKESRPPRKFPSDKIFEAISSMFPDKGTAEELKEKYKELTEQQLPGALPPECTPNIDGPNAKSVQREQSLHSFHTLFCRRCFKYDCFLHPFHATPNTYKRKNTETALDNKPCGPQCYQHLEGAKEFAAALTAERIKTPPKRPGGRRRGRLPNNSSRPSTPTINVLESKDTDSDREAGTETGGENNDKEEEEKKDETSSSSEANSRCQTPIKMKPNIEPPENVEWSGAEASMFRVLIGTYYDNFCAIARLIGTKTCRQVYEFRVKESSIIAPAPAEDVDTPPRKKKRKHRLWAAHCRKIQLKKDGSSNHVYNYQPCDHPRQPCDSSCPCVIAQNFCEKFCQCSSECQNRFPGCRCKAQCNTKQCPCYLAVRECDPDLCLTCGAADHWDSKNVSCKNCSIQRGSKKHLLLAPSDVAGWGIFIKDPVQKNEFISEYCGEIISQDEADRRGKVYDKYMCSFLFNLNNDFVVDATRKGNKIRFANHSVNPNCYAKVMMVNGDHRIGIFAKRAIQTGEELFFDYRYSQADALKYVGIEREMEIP

This data set deals with polycomb repressive complex 2 (PRC2) (Homo sapiens, UniProt Q15910). The settings on record: PRC2, at 10 μM; cited from earlier work.

The structures appear in SMILES notation.

As to `O=C(O)c1ccc2c(c1)nc(NC(=O)c1ccccc1)n2CCCc1ccccc1` [BRD9539], the activity remaining is recorded as 43%.
